PubChem BioAssay AID504804 – Drosophila RNAi Screening Center – 2011
Aim: 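dsRNAs that improve Kc cell survival under doxorubicin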 (primary screen). System: Drosophila Kc cells. Knock-down reagent: long dsRNA against Drosophila genes, 0.5 µg dsRNA per well. Duration: 96 h (48 h knock-down, then 48 h drug). Challenge: doxorubicin 5 µg/ml for 48 h, added 48 h after dsRNA. Detection: 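Luminescent ATP counts per replicate, not normalised, reflecting viable cells after 48 h dsRNA knock-down followed by 48 h of 5 µg/ml doxorubicin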. Reading the numbers: raw ATP luminescence: higher = more viable cells, protection from doxorubicin. Active means: 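Active when both duplicate wells lie at least 2 SD above the plate mean and protection is confirmed by rescreening and independent dsRNAs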.
In all, the deposit lists about 19,000 reagents; below is an unselected part of those with a known target gene and a result. Over the whole deposit, 47 (0.25%) got an active call. 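Signals are raw, not normalised; exact z-scores behind calls not deposited; actives needed confirmation, so some wells reaching 2 SD are inactive.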 A number with no mark means an inactive call. The numbers tell different reagents against one gene apart. A plus sign joins genes that one reagent is predicted to hit.

| predicted target | dsRNA no. | SD above plate mean | raw ATP luminescence, replicate 1 | raw ATP luminescence, replicate 2 |
| --- | --- | --- | --- | --- |
| Npc2b (GeneID 41710) | 1 | – | 1.10e5 | 76240 |
| t-Grip84 (GeneID 38852) | 1 | – | 69077 | 76703 |
| His2B:CG33894 + His2B:CG33872 + His2B:CG33902 + 20 more | 1 | – | 1.92e5 | 1.58e5 |
| Polr1B (GeneID 33210) | 1 | – | 1.11e5 | 78773 |
| CG5245 (GeneID 41530) | 1 | – | 56200 | 44780 |
| btl (GeneID 39564) | 1 | – | 62260 | 59333 |
| CG13001 (GeneID 32684) | 1 | – | 3.83e5 | 2.76e5 |
| Lpt (GeneID 37795) | 1 | at least 3 SD above plate mean (active) | 66197 | 55600 |
| Lpt (GeneID 37795) | 2 | – | 57070 | 50817 |
| CG18139 (retired record) + Hmx | 1 | at least 2 SD above plate mean (active) | 1.22e5 | 1.10e5 |
| CG34266 (GeneID 5740465) | 1 | – | 86450 | 83683 |
| CG15625 (GeneID 33694) | 1 | – | 24877 | 33783 |
| Rpn5 (GeneID 40717) | 1 | – | 43147 | 37323 |

Entries above whose target name starts with L or l (2):
| predicted target | dsRNA no. | SD above plate mean | raw ATP luminescence, replicate 1 | raw ATP luminescence, replicate 2 |
| --- | --- | --- | --- | --- |
| Lpt (GeneID 37795) | 1 | at least 3 SD above plate mean (active) | 66197 | 55600 |
| Lpt (GeneID 37795) | 2 | – | 57070 | 50817 |

The list goes on:
| predicted target | dsRNA no. | SD above plate mean | raw ATP luminescence, replicate 1 | raw ATP luminescence, replicate 2 |
| --- | --- | --- | --- | --- |
| CecC (GeneID 43599) | 1 | – | 39000 | 16000 |
| scaf6 (GeneID 3346235) | 1 | – | 25727 | 24663 |
| scaf6 (GeneID 3346235) | 2 | – | 37450 | 32440 |
| scaf6 (GeneID 3346235) | 3 | – | 55390 | 32220 |
| Ku80 (GeneID 34930) | 1 | – | 64593 | 70323 |
| CG16959 (GeneID 39648) | 1 | at least 2 SD above plate mean (active) | 42413 | 41210 |
| vvl (GeneID 38752) | 1 | – | 69567 | 78760 |
| CG13887 (GeneID 38096) | 1 | – | 64933 | 53480 |
| hd (GeneID 40642) | 1 | – | 65910 | 72687 |
| BORCS7 + CG13430 | 1 | – | 70953 | 69503 |
| dmpd (GeneID 36061) | 1 | – | 59393 | 51797 |
| PAN2 (GeneID 35893) | 1 | – | 74773 | 66400 |
| Dgkepsilon (GeneID 36408) | 1 | – | 58620 | 45507 |
| CG40053 (retired record) (GeneID 3355092) | 1 | – | 2.34e5 | 2.54e5 |
| MED24 (GeneID 38914) | 1 | – | 62570 | 88017 |
| CG18636 (GeneID 2768923) | 1 | – | 74933 | 60043 |
| Irk1 (GeneID 42742) | 1 | – | 55290 | 68130 |
| CG33784 (GeneID 3772181) | 1 | – | 60413 | 59347 |
| CG3491 (GeneID 34870) | 1 | – | 63363 | 64780 |
| CG5114 (GeneID 39624) | 1 | – | 25610 | 24037 |
| Dp (GeneID 36461) | 1 | – | 49467 | 38450 |
